The results in this text go back to the supplement of paper PMC7024190.

Each structure is given as a SMILES string. The list shows a part of the results. Repeats in this data set agree poorly, so a single value says little.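 Human embryonic kidney cells were transiently transfected with a plasmid bearing a Renilla luciferase gene under the HSV-TK promoter. This first-round screen tests roughly ten thousand compounds for ones that increase reporter output.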

This experiment has as its system HEK 293FT. As to the kind of experiment: log relative Renilla luciferase luminescence (reporter expression vs reference, reference not stated) (log (base not stated)); higher = higher recombinant reporter expression. The following applies: 10 µM; time after transfection 48 h.
For the compound `Clc1ccccc1C(c1ccccc1)(c1ccccc1)n1ccnc1`, the log is -0.474.
To `COc1ccc(C(=O)NCc2ccc(OCCN(C)C)cc2)cc1OC` belongs -0.315; to `CN1CCC(=C2c3ccccc3CC(=O)c3sccc32)CC1`, 0.143.
To `Nc1ccn([C@H]2CC[C@@H](CO)O2)c(=O)n1` belongs -0.294; to `CN1CCN(C2=Nc3cc(F)ccc3Cc3ccccc32)CC1` [Fluperlapine], 0.172.
To `C=CC[C@@H]1/C=C(\C)C[C@H](C)C[C@H](OC)[C@H]2O[C@@](O)(C(=O)C(=O)N3CCCC[C@H]3C(=O)O[C@H](/C(C)=C/[C@@H]3CC[C@@H](O)[C@H](OC)C3)[C@H](C)[C@@H](O)CC1=O)[C@H](C)C[C@@H]2OC` belongs -0.0818; to `C[C@H]1C[C@H]2[C@@H]3CCC4=CC(=O)C=C[C@]4(C)[C@@]3(Cl)[C@@H](O)C[C@]2(C)[C@@]1(O)C(=O)CO` [Beclomethasone], 0.0825.
With `CCCCCCNC(=O)n1cc(F)c(=O)[nH]c1=O`, the log came to 0.0407.
`Cc1cccc(Nc2ccncc2S(=O)(=O)NC(=O)NC(C)C)c1`: the log was -0.146.
On to `COC1=C(OC)C(=O)C(CCCCCCCCCCO)=C(C)C1=O`, for which the log was -0.0818.
To `Nc1[nH]c(=O)ncc1F` belongs 0.0815; to `COc1cc2nc(N3CCN(C(=O)c4ccco4)CC3)nc(N)c2cc1OC` [Prazosin], 0.192; to `COc1cc2c(cc1OC)C(=O)C(CC1CCN(Cc3ccccc3)CC1)C2` (stereo not given) [Donepezil], -0.491.
Turning to `Fc1ccc([C@@H]2CCNC[C@H]2COc2ccc3c(c2)OCO3)cc1`, the log was -1.34.
Take `CC(C)C[C@H](NC(=O)[C@@H](O)[C@H](N)Cc1ccccc1)C(=O)O`: the log is -0.0897.
To `CC(Cc1ccccc1)(NC(=O)CN)c1ccccc1` (racemic) belongs -0.506.
To `Nc1c2c(nc3ccccc13)CCCC2` belongs 0.0133.
To `NC[C@H]1CC[C@H](C(=O)Oc2ccc(CCC(=O)O)cc2)CC1` belongs 0.152; to `CCCCc1nc(Cl)c(CO)n1Cc1ccc(-c2ccccc2-c2nnn[nH]2)cc1` [LOSARTAN Potassium], 0.054; to `CCC(=O)O[C@]1(C(=O)SCF)[C@H](C)C[C@H]2[C@@H]3C[C@H](F)C4=CC(=O)C=C[C@]4(C)[C@@]3(F)[C@@H](O)C[C@@]21C`, -0.189.
As for `CN(C)CCOC(C)(c1ccccc1)c1ccccn1` (stereo not given), the log is -0.125.
To `CO[C@H]1/C=C/O[C@@]2(C)Oc3c(C)c(O)c4c(O)c(c5c(nc6cc(C)ccn65)c4c3C2=O)NC(=O)/C(C)=C\C=C\[C@H](C)[C@H](O)[C@@H](C)[C@@H](O)[C@@H](C)[C@H](OC(C)=O)[C@@H]1C` belongs -0.611.
To `COCc1c(C(C)C)nc(C(C)C)c(/C=C/[C@@H](O)C[C@@H](O)CC(=O)O)c1-c1ccc(F)cc1` belongs -0.165.
To `COc1cc2nc(N3CCN(C(=O)C4CCCO4)CC3)nc(N)c2cc1OC` (stereo not given) [Terazosin] belongs 0.192; to `CO[C@H]1/C=C/O[C@@]2(C)Oc3c(C)c(O)c4c(O)c(c(/C=N/N5CCN(C6CCCC6)CC5)c(O)c4c3C2=O)NC(=O)/C(C)=C\C=C\[C@H](C)[C@H](O)[C@@H](C)[C@@H](O)[C@@H](C)[C@H](OC(C)=O)[C@@H]1C`, -0.909.
As to `Cc1ncc([N+](=O)[O-])n1CCO`, the log was 0.158.
To `CC[C@@]1(O)C(=O)OCc2c1cc1n(c2=O)Cc2cc3c(CN(C)C)c(O)ccc3nc2-1` belongs -0.971; to `CC(Oc1c(Cl)cccc1Cl)C1=NCCN1` (stereo not given), 0.0618.
Consider `COc1cc(C)nc(-n2nc(C)cc2OC)n1`, for which the log is -0.0122.
Regarding `CC(C)(C)C(O)/C=C/c1ccc2c(c1)OCO2` (stereo not given) [Stiripentol], the log was 0.0127.
For the compound `Cc1ccnc2c1NC(=O)c1cccnc1N2C1CC1` [Viramune], the log was -0.105.
As to `CO[C@H]1/C=C/O[C@@]2(C)Oc3c(C)c(O)c4c(c3C2=O)C2=NC3(CCN(CC(C)C)CC3)NC2=C(NC(=O)/C(C)=C\C=C\[C@H](C)[C@H](O)[C@@H](C)[C@@H](O)[C@@H](C)[C@H](OC(C)=O)[C@@H]1C)C4=O`, the log turned out to be 0.00924.
To `CC(=O)NCCCCCCNC(C)=O` belongs 0.112; to `CCCc1nc2c(C)cc(-c3nc4ccccc4n3C)cc2n1Cc1ccc(-c2ccccc2C(=O)O)cc1`, -0.389; to `O=C(O)C[C@H](O)C[C@H](O)/C=C/c1c(C2CC2)nc2ccccc2c1-c1ccc(F)cc1`, 0.0878.
To `CN(C)CCC[C@@]1(c2ccc(F)cc2)OCc2cc(C#N)ccc21` belongs -0.156; to `Cc1ccc(NC(=O)c2ccc(CN3CCN(C)CC3)cc2)cc1Nc1nccc(-c2cccnc2)n1`, -0.0539.
Consider `CN1CCCC(n2nc(Cc3ccc(Cl)cc3)c3ccccc3c2=O)CC1` (stereo not given), for which the log was determined as 0.0325.
In the case of `Cc1ncc([N+](=O)[O-])n1CC(C)O` (stereo not given) [1-(2-Methyl-5-nitro-imidazol-1-yl)-propan-2-ol], the log was -0.169.
To `CCCN[C@H]1CCc2nc(N)sc2C1` [Pramipexole] belongs 0.0127.
